Source: the supplement of paper PMC12009310
Where a name gives a salt, the structure may show the parent alone. ± gives the standard deviation of the averaged measurements. The list shows a part of the results. Part of the spread comes from offsets between plates or batches.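 The cells are a mouse kidney inner medullary collecting duct line, silenced either for the ciliary gene Rpgrip1l or with a non-targeting control siRNA.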

The compounds below were run on mIMCD3 (assay: robust z score of cell number vs plate controls; higher = more cells (less cytotoxic)). Conditions: 10 µM; 48 h; siRNA: siScr.

Row | SMILES | robust z score of cell number
1 | CN(Cc1cnc2nc(N)nc(N)c2n1)c1ccc(C(=O)N[C@@H](CCC(=O)O)C(=O)O)cc1 [Methotrexate] | -34.6 ± 3
2 | O=C(NCCCCN1CCN(c2cccc(Cl)c2Cl)CC1)c1ccc2c(c1)Cc1ccccc1-2 | -69.5 ± 64
3 | CCCC[P+](CCCC)(CCCC)Cc1ccc(NC(=O)C(Cc2ccc3ccccc3c2)NC(=NC2CCCCC2)NC2CCCCC2)cc1 (stereo unspecified) | -22.5 ± 5.1
4 | O=c1cc(N2CCNCC2)oc2c(-c3ccccc3)cccc12 | -4.83 ± 1.3
5 | COc1ccccc1N1CCN(CCCCNC(=O)c2ccc(-c3ccc(C(C)=O)cc3)cc2)CC1 | 0.408 ± 5.7
6 | O=C(NCCCN1CCCCCC1)C(c1ccccc1)C1CCCCC1 (stereo unspecified) | -10.7 ± 9.8
7 | O=C(Nc1ccncc1)c1cc([N+](=O)[O-])ccc1Cl | -8.38 ± 2.7
8 | O=C1CC2(CCCC2)CC(=O)N1CCNCC1COc2ccccc2O1 (stereo unspecified) | -41 ± 31
9 | CC(CCCCC(=O)Nc1ccc(C(F)(F)F)cc1)NCCc1cnc[nH]1 (stereo unspecified) [HTMT dimaleate] | -7.22 ± 6.1
10 | Cc1nnc(-c2ccc3occ(-c4ccc([S+](C)[O-])cc4)c3c2)o1 (stereo unspecified) | 0.817 ± 6.5
11 | CCOC(=O)[C@H](CCc1ccccc1)N[C@H]1CCc2ccccc2N(CC(=O)O)C1=O [Benazepril hydrochloride] | -35.1 ± 38
12 | O=c1[nH]c2cc(Cl)ccc2c(O)c1-c1cccc(Oc2ccccc2)c1 | -5.53 ± 3.8
13 | COc1ccccc1C1(O)CCN(CCCn2c3ccccc3c3ccccc32)CC1 [NNC 05-2090 hydrochloride] | -14.4 ± 13
14 | NS(=O)(=O)Cc1noc2ccccc12 [Zonisamide] | -30.6 ± 29
15 | COc1cc(/C=C(\C#N)C(N)=O)cc(CSc2nc3ccccc3s2)c1O | 0.768 ± 4.7
16 | COc1ccc(C2CC(c3c(O)cc(C)oc3=O)=NCCS2)c(OC)c1 (stereo unspecified) | -12.9 ± 12
17 | O=C(O)C1CCCN(CCC=C(c2ccccc2)c2ccccc2)C1 (stereo unspecified) | 2.71 ± 2.5
18 | CCS(=O)(=O)N1CCC[C@@H]2CN3CCc4cc(OC)ccc4[C@@H]3C[C@@H]21 | -5.14 ± 2.4
19 | O=C(COc1cccc2c(=O)[nH]ccc12)c1ccccc1 | -6.97 ± 4.5

In another format: two of the compounds above.
Row	SMILES	robust z score of cell number
12	O=c1[nH]c2cc(Cl)ccc2c(O)c1-c1cccc(Oc2ccccc2)c1	-5.53 ± 3.8
17	O=C(O)C1CCCN(CCC=C(c2ccccc2)c2ccccc2)C1 (stereo unspecified)	2.71 ± 2.5

(more compounds)

Row | SMILES | robust z score of cell number
20 | CCCCCCC(=O)OC1CC(C)(C)NC(C)(C)C1 [TMPH hydrochloride] | -14.3 ± 5
21 | C=C1C(=O)O[C@@H]2/C=C(\C)CC/C=C(\C)CC[C@@H]12 [Costunolide] | -49.1 ± 51
22 | CCN(CC)CCOC(=O)C1(c2ccc([N+](=O)[O-])cc2)CCCC1 [Nitrocaramiphen hydrochloride] | -42.6 ± 24
23 | CC(Cc1ccc(O)c(O)c1)(NN)C(=O)O [(S)-(-)-Carbidopa] | -7.41 ± 9.1
24 | CS(=O)(=O)c1ccc(-c2cc(Br)sc2-c2ccc(F)cc2)cc1 | -37.6 ± 8.8
25 | CC(=O)O[C@@H]1C[C@H]2C(C)(C)C(=O)C=C[C@]2(C)[C@H]2CC[C@@]3(C)[C@H](c4ccoc4)OC(=O)[C@H]4O[C@]43[C@@]21C [Gedunin] | -6.06 ± 0.97
26 | COc1ccc2[nH]c(-c3ccccc3)c(CCNC(C)=O)c2c1 [2-Phenylmelatonin] | -1.33 ± 2.2
27 | Nc1nc(-c2ccc(Cl)c(Cl)c2)c(-c2ccncc2)s1 [CGH 2466 dihydrochloride] | -6.18 ± 1.2
28 | COc1ccc(CCCOC(Cn2ccnc2)c2ccc(OC)cc2)cc1 (stereo unspecified) | -20.6 ± 3.1
29 | C[C@H](NC(=O)/C(C#N)=C/c1ccc(O)c(O)c1)c1ccccc1 [Tyrphostin B44, (+) enantiomer] | -23.9 ± 20
30 | CCCCC#Cc1nc(NC)c2ncn([C@@H]3O[C@H](CO)[C@@H](O)[C@H]3O)c2n1 | 4.538 ± 0.019
31 | CCOc1cc(CC(=O)N[C@@H](CC(C)C)c2ccccc2N2CCCCC2)ccc1C(=O)O [Repaglinide] | -5.12 ± 3
32 | O=C1NC(=O)c2c1c(-c1ccccc1)cc1[nH]c3ccc(O)cc3c21 | 0.539 ± 0.5
33 | C1COC(NC(C2CC2)C2CC2)=N1 [Rilmenidine hemifumarate] | -3.05 ± 0.73
34 | COc1ccc(OC)c2c(=S)c3ccccc3[nH]c12 | -8.58 ± 6.1
35 | CNCCC(Oc1ccc(C(F)(F)F)cc1)c1ccccc1 (stereo unspecified) [Fluoxetine hydrochloride] | -24.8 ± 13
36 | NS(=O)(=O)c1nn2cc(-c3ccccc3)nc2s1 | -64.2 ± 68
37 | Oc1c2ccccc2c2c3c(cccc13)N=N2 | -35 ± 8
38 | COCCNC(=O)COc1ccc(OCCNC[C@H](O)COc2ccccc2)cc1 [ZD 7114 hydrochloride] | -2.86 ± 4.7

3 of the compounds above, as a markdown table.

| Row | SMILES | robust z score of cell number |
| --- | --- | --- |
| 21 | C=C1C(=O)O[C@@H]2/C=C(\C)CC/C=C(\C)CC[C@@H]12 [Costunolide] | -49.1 ± 51 |
| 22 | CCN(CC)CCOC(=O)C1(c2ccc([N+](=O)[O-])cc2)CCCC1 [Nitrocaramiphen hydrochloride] | -42.6 ± 24 |
| 23 | CC(Cc1ccc(O)c(O)c1)(NN)C(=O)O [(S)-(-)-Carbidopa] | -7.41 ± 9.1 |

What follows are compounds tested on mIMCD3 (assay: robust z score of cilia incidence (% cells with single cilium) vs plate controls; higher = more ciliated cells). Conditions: 10 µM; 48 h; siRNA: siScr.

Row | SMILES | robust z score of cilia incidence
39 | CN(Cc1cnc2nc(N)nc(N)c2n1)c1ccc(C(=O)N[C@@H](CCC(=O)O)C(=O)O)cc1 [Methotrexate] | -8.19 ± 3.7
40 | O=C(NCCCCN1CCN(c2cccc(Cl)c2Cl)CC1)c1ccc2c(c1)Cc1ccccc1-2 | -21.7 ± 8.9
41 | CCCC[P+](CCCC)(CCCC)Cc1ccc(NC(=O)C(Cc2ccc3ccccc3c2)NC(=NC2CCCCC2)NC2CCCCC2)cc1 (stereo unspecified) | -16.7 ± 9.9
42 | O=c1cc(N2CCNCC2)oc2c(-c3ccccc3)cccc12 | -5.46 ± 6.3
43 | COc1ccccc1N1CCN(CCCCNC(=O)c2ccc(-c3ccc(C(C)=O)cc3)cc2)CC1 | -3.98 ± 1.3
44 | O=C(NCCCN1CCCCCC1)C(c1ccccc1)C1CCCCC1 (stereo unspecified) | 1.65 ± 0.22
45 | O=C(Nc1ccncc1)c1cc([N+](=O)[O-])ccc1Cl | -0.33 ± 0.76
46 | O=C1CC2(CCCC2)CC(=O)N1CCNCC1COc2ccccc2O1 (stereo unspecified) | -26.1 ± 2.8
47 | CC(CCCCC(=O)Nc1ccc(C(F)(F)F)cc1)NCCc1cnc[nH]1 (stereo unspecified) [HTMT dimaleate] | -1.94 ± 1.5
48 | Cc1nnc(-c2ccc3occ(-c4ccc([S+](C)[O-])cc4)c3c2)o1 (stereo unspecified) | 1.18 ± 1.4
49 | CCOC(=O)[C@H](CCc1ccccc1)N[C@H]1CCc2ccccc2N(CC(=O)O)C1=O [Benazepril hydrochloride] | 1.27 ± 1
50 | O=c1[nH]c2cc(Cl)ccc2c(O)c1-c1cccc(Oc2ccccc2)c1 | 2.88 ± 1.8
51 | COc1ccccc1C1(O)CCN(CCCn2c3ccccc3c3ccccc32)CC1 [NNC 05-2090 hydrochloride] | -27.7 ± 19
52 | NS(=O)(=O)Cc1noc2ccccc12 [Zonisamide] | -1.48 ± 7.2
53 | COc1cc(/C=C(\C#N)C(N)=O)cc(CSc2nc3ccccc3s2)c1O | -0.534 ± 1.4
54 | COc1ccc(C2CC(c3c(O)cc(C)oc3=O)=NCCS2)c(OC)c1 (stereo unspecified) | -18.2 ± 14
55 | O=C(O)C1CCCN(CCC=C(c2ccccc2)c2ccccc2)C1 (stereo unspecified) | -0.307 ± 0.43
56 | CCS(=O)(=O)N1CCC[C@@H]2CN3CCc4cc(OC)ccc4[C@@H]3C[C@@H]21 | -13.1 ± 4.4
57 | O=C(COc1cccc2c(=O)[nH]ccc12)c1ccccc1 | 4.93 ± 6.8

Row | SMILES | robust z score of cilia incidence
58 | CCCCCCC(=O)OC1CC(C)(C)NC(C)(C)C1 [TMPH hydrochloride] | -28.1 ± 22
59 | C=C1C(=O)O[C@@H]2/C=C(\C)CC/C=C(\C)CC[C@@H]12 [Costunolide] | -5.68 ± 4.9
60 | CCN(CC)CCOC(=O)C1(c2ccc([N+](=O)[O-])cc2)CCCC1 [Nitrocaramiphen hydrochloride] | -28.2 ± 2.1
61 | CC(Cc1ccc(O)c(O)c1)(NN)C(=O)O [(S)-(-)-Carbidopa] | 1.64 ± 1.7
62 | CS(=O)(=O)c1ccc(-c2cc(Br)sc2-c2ccc(F)cc2)cc1 | -17.6 ± 5.5
63 | CC(=O)O[C@@H]1C[C@H]2C(C)(C)C(=O)C=C[C@]2(C)[C@H]2CC[C@@]3(C)[C@H](c4ccoc4)OC(=O)[C@H]4O[C@]43[C@@]21C [Gedunin] | -11.9 ± 3.7
64 | COc1ccc2[nH]c(-c3ccccc3)c(CCNC(C)=O)c2c1 [2-Phenylmelatonin] | -0.0153 ± 0.23
65 | Nc1nc(-c2ccc(Cl)c(Cl)c2)c(-c2ccncc2)s1 [CGH 2466 dihydrochloride] | -6.21 ± 5.6
66 | COc1ccc(CCCOC(Cn2ccnc2)c2ccc(OC)cc2)cc1 (stereo unspecified) | -14.6 ± 1.6
67 | C[C@H](NC(=O)/C(C#N)=C/c1ccc(O)c(O)c1)c1ccccc1 [Tyrphostin B44, (+) enantiomer] | -1.6 ± 1.5
68 | CCCCC#Cc1nc(NC)c2ncn([C@@H]3O[C@H](CO)[C@@H](O)[C@H]3O)c2n1 | 3.59 ± 2.4
69 | CCOc1cc(CC(=O)N[C@@H](CC(C)C)c2ccccc2N2CCCCC2)ccc1C(=O)O [Repaglinide] | 7.87 ± 1.5
70 | O=C1NC(=O)c2c1c(-c1ccccc1)cc1[nH]c3ccc(O)cc3c21 | 0.0913 ± 1.2
71 | C1COC(NC(C2CC2)C2CC2)=N1 [Rilmenidine hemifumarate] | -0.666 ± 1.2
72 | COc1ccc(OC)c2c(=S)c3ccccc3[nH]c12 | -0.484 ± 0.28
73 | CNCCC(Oc1ccc(C(F)(F)F)cc1)c1ccccc1 (stereo unspecified) [Fluoxetine hydrochloride] | -31.9 ± 9.2
74 | NS(=O)(=O)c1nn2cc(-c3ccccc3)nc2s1 | -6.23 ± 6.2
75 | Oc1c2ccccc2c2c3c(cccc13)N=N2 | -19.1 ± 4.2
76 | COCCNC(=O)COc1ccc(OCCNC[C@H](O)COc2ccccc2)cc1 [ZD 7114 hydrochloride] | -4.2 ± 5.2
